Reference: paper PMC9969854
Results are given in words; binding and its absence hold for the method and conditions named. Binding can be weak; no strength is given. For some assays here: Binding seen in cells or lysates may run through a third protein.

Assays:
[1] = target: T1, OsYABBY3 (rice (Oryza sativa)) (UniProt Q8L556); test: split reporter; luciferase complementation imaging (LCI): OsYABBY in the N-luc vector, partner in the C-luc vector, expressed together in Nicotiana benthamiana; bioluminescence detected by Tanon5200
T1 sequence: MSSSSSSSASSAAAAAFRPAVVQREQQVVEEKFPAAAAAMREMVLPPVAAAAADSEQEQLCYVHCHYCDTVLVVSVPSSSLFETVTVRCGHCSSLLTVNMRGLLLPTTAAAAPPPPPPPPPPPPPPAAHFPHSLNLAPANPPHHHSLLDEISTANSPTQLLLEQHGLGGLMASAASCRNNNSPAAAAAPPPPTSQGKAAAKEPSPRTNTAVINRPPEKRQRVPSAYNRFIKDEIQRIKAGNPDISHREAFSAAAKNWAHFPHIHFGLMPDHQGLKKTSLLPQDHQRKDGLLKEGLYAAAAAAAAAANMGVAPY

[2] = target: T2, OsYABBY2 (rice (Oryza sativa)) (UniProt Q10FZ7); test: as above
T2 sequence: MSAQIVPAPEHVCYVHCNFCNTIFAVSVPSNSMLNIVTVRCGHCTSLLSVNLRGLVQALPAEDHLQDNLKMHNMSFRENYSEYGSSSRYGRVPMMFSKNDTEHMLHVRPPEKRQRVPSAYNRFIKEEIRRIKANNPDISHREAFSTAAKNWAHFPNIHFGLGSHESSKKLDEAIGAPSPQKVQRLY

[3] = target: T3, OsYABBY1 (rice (Oryza sativa)) (UniProt Q7XIM7); test: as above
T3 sequence: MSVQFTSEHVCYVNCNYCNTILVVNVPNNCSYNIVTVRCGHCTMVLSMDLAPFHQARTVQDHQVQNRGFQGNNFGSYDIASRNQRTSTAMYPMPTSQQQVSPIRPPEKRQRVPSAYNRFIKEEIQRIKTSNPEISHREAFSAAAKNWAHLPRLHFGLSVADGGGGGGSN

[4] = target: T4, OsYABBY6 (rice (Oryza sativa)) (UniProt Q2QM17); test: as above
T4 sequence: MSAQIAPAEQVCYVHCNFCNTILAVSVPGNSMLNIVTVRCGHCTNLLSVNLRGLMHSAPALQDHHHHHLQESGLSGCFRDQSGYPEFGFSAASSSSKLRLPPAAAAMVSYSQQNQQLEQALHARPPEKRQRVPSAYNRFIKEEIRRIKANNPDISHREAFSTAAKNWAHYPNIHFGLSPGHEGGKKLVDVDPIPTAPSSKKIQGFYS

[5] = target: T5, OsYABBY5 (rice (Oryza sativa)) (UniProt Q0JBF0); test: as above
T5 sequence: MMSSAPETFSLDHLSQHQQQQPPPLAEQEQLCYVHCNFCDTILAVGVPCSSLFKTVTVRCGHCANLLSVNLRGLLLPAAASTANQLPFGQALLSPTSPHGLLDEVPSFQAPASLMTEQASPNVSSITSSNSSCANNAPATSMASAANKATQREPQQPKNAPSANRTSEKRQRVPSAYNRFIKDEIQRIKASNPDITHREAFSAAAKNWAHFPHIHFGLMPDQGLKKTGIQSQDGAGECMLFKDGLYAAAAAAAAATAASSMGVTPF

[6] = target: T6, OsYABBY4 (rice (Oryza sativa)) (UniProt Q6H668); test: as above
T6 sequence: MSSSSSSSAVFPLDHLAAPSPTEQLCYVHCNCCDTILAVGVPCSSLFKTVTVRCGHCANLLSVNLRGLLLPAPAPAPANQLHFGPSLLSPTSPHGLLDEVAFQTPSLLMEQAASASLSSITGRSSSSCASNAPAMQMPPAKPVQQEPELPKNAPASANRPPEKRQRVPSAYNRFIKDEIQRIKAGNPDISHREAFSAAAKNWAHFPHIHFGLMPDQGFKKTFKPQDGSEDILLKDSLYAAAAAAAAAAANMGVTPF

[7] = target: T7, DL (DROOPING LEAF) (rice (Oryza sativa)) (UniProt Q76EJ0); test: as above
T7 sequence: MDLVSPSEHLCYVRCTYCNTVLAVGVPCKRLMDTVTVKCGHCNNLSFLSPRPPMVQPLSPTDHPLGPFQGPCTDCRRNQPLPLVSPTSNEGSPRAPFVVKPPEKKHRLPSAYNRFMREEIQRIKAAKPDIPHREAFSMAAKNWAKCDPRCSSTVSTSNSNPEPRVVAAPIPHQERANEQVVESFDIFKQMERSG

[8] = target: T1, OsYABBY3 (rice (Oryza sativa)); test: two-hybrid; OsYABBYs as bait in pGBKT7, OsWOX3A or OsWUS as prey in pGADT7; yeast AH109; growth on SD/-Leu/-Trp/-His/-Ade medium
[9] = target: T2, OsYABBY2 (rice (Oryza sativa)); test: as above
[10] = target: T3, OsYABBY1 (rice (Oryza sativa)); test: as above
[11] = target: T4, OsYABBY6 (rice (Oryza sativa)); test: as above
[12] = target: T5, OsYABBY5 (rice (Oryza sativa)); test: as above
[13] = target: T6, OsYABBY4 (rice (Oryza sativa)); test: as above
[14] = target: T7, DL (DROOPING LEAF) (rice (Oryza sativa)); test: as above

Measured: binding

OsWOX3A (rice (Oryza sativa))
binds weakly: [7] | [14]
binds: all other assays above
